Test results from article PMC11086750.
No constants are given. Whether binding was seen depends on the method and setting. Binding seen in cells or lysates may run through a third protein. Some entries that bind do so weakly or less than the wild type. Tags and fused reporters may be left off the sequences shown.

Protein sequences, listed by entry. Tags and fused reporters are not part of them.
UniProt Q86WV6: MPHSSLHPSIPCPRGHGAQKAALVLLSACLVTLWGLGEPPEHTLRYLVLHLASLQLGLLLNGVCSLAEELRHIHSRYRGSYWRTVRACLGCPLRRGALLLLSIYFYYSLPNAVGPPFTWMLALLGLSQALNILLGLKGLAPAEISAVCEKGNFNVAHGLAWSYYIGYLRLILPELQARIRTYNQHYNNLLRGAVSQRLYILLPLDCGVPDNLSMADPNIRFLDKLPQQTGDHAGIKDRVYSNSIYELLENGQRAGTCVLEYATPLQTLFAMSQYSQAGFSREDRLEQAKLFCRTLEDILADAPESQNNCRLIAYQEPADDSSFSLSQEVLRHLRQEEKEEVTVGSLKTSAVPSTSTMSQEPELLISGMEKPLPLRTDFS

Molecular target: T1, FLAG-GSDMB (Gasdermin B) (human) (UniProt Q8TAX9)
T1 sequence: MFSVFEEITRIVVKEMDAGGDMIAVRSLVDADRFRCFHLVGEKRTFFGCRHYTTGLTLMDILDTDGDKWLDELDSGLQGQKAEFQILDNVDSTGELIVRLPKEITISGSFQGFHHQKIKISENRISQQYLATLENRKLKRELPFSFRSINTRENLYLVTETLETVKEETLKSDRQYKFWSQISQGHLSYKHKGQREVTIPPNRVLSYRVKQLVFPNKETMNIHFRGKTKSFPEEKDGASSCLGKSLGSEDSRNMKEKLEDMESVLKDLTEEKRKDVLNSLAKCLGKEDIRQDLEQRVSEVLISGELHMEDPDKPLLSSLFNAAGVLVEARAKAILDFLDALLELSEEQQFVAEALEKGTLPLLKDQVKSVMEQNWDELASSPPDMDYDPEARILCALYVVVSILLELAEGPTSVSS
Assay: co-IP; HEK293 cells co-transfected with a FLAG-tagged and an HA-tagged protein; IP with anti-FLAG beads, immunoblot with HA antibody

binding: binds
Substance: HA-STING (stimulator of interferon genes) (from UniProt Q86WV6 1-379)
